{"source": "patent EP4494649A1", "about": "“PEPTIDES FOR USE IN THE TREATMENT OF AXONAL DAMAGE IN DIABETES” (Universität zu Köln, priority 2023, dated 2025)", "key": {"[1]": {"test_system": "diabetic sciatic nerve", "assay": "Anatomical axon regeneration after sciatic nerve crush (SNC) in streptozotocin-induced T1DM mice", "assay_type": "in vivo", "details": "strep-induced T1DM mice, intrathecal injection 1 day prior and on the day of the SNC, 3 dpi", "protocol": "(§1) To model type 1 diabetes mellitus (T1DM), male and female wild-type Ola received a single intraperitoneal injection of 100 mg/kg streptozotocin (strep) or vehicle (veh; 0.1 M citrate buffer, pH 4.5) at 4-6 weeks of age. The efficacy of the treatment was confirmed by assessing blood glucose levels 1 week after injection. Strep mice with over 250 mg/dl of blood glucose were considered diabetic. Thus, diabetes was induced 2 months before sciatic nerve crush.\nAll surgical procedures on mice adhered to respective animal care guidelines and were approved by the local authorities (LANUV Recklinghausen). For intrathecal AAV2.1 (CRMP2T514A-HA, GFP, tdTomato, and Cre-GFP: titer: ≥7·1012 vg/ml, Addgene), a 5 mm skin incision was made above the L4-L5 spines. The muscle tissue was carefully spread, and 2.5 µl of the viral solution was injected into the cerebrospinal fluid between the L4 and L5 spines using a Nanoject II injector (Drummond Scientific) with three consecutive 833 nl injections with a speed of 23 nl/s and 20 s intervals between injections. The skin was closed using 6-0 sutures. Transduction was performed 2 weeks before sciatic nerve crush (SNC). SNC was performed as described in Gobrecht et al., Nature Communications 5, 4561 (2014) and Gobrecht et al., (2016). In brief, animals were anesthetized by inhalation anaesthesia with 1.5% isoflurane in oxygen, and a skin incision of 5 mm was made above the gluteal region. […]\nFor assessment of anatomical regeneration, the sciatic nerves were isolated 3 days post-injury (dpi). […] Regeneration of sympathetic fibers was quantified with immunostaining against tyrosine hydroxylase (TH; Novus, 1:500; RRID:AB_10077691).\nTo verify the regeneration-stimulating effect of the peptide, axonal regeneration was determined in vivo. […] Anatomical regeneration was assessed 3 days post-injury (dpi).\nTo verify the regeneration-stimulating effect in vivo, axonal regeneration was determined. […] Anatomical regeneration was assessed 3 days post-injury (dpi)."}, "[2]": {"test_system": "CRMP2", "assay": "Inhibitory CRMP2 phosphorylation (pCRMP2^T514) in DRG of diabetic mice, Western blot and immunostaining", "assay_type": "in vivo", "details": "DRG (L6, L4-L6); strep-treated mice; injection 1 day before and on the SNC; tissue harvested 3 days after; Figures 2A-2C", "protocol": "as §1\nThe intrathecal application of anti-peptide against CDK5 (AP-CDK5) and P5 was performed with the above-described method to assess anatomical regeneration. […]\nDRG (L3-L5) or 3 mm of the sciatic nerves proximal to the injury site from three mice per group were homogenized by sonication in 100 µl lysis buffer (20 mM Tris-HCl pH 7.5, 10 mM KCl, 250 mM sucrose, 10 mM NaF, 1mM DTT, 0.1 mM Na3VO4, 1% Triton X-100, 0.1% SDS, 1% protease inhibitors (Merck Millipore) and phosphatase inhibitors (Roche)). […] All antibodies were detected with anti-rabbit or anti-mouse IgG secondary antibodies conjugated to HRP (1:80,000; Sigma). […]\n[…] Antibodies were detected with anti-rabbit, anti-goat, or anti-mouse secondary antibodies conjugated to Dylight-405,_Alexa-594, or Alexa-488.\nFigure 1H illustrates the timeline of experiments. […] After SNC, SSI and von Frey tests were assessed before the day of SNC, and days 1, 4, 7, 9, 14, 21, 28, and 35 thereafter. […]"}}, "note": "Not every detail of the peptide structures is certain; ends, links or a residue may be inferred. Where no end group is shown, it is not given here."}
{"sequence": "KEAFWDRCLSVINLMSSKMLQINAYARAARRAARR [TAT-fused P5]", "values": [{"measurement": "anatomical regeneration of motor fibers", "setting": "[1]; ChAT staining", "result": "accelerated"}, {"measurement": "anatomical regeneration of sensory fibers", "setting": "[1]; SCG10 staining", "result": "accelerated"}, {"measurement": "anatomical regeneration of sympathetic fibers", "setting": "[1]; TH staining", "result": "accelerated"}, {"measurement": "CRMP2 inactivation in DRG neurons (pCRMP2^T514 immunostaining and Western blot)", "setting": "[2]", "result": "strongly reduced"}]}
